No constants are given. Whether binding was seen depends on the method and setting. In cells and extracts the contact can be indirect. Some binding calls cover weakened binding; strength is not graded here. Blank lines part the entries; values can stand above or below the substance they belong to.
How the values were obtained:
[1] = target: Flag-tagged PA28γ (proteasomal activator 28 gamma) (human) (UniProt P61289); experiment: co-IP; exogenous BRAF, MEK1 and PA28γ expressed together; immunoprecipitation with the Flag, HA or Myc antibody; immunoblot
[2] = target: Flag-tagged PA28γ (proteasomal activator 28 gamma) (human) (UniProt P61289); experiment: co-IP; 293T cells co-transfected with two tagged plasmids; lysis in IP buffer (0.1% SDS, 1% Triton, 150 mM NaCl, 0.5 mM EDTA, 1 mM DTT); anti-Flag affinity gel, HA antibody or Myc antibody, overnight at 4 °C; immunoblot
HA-tagged MEK1 [3] = target: HA-tagged MEK1 (UniProt Q02750); experiment: co-IP; exogenous BRAF, MEK1 and PA28γ expressed together; immunoprecipitation with the Flag, HA or Myc antibody; immunoblot
HA-tagged MEK1 [4] = target: HA-tagged MEK1 (UniProt Q02750); experiment: co-IP; 293T cells co-transfected with two tagged plasmids; lysis in IP buffer (0.1% SDS, 1% Triton, 150 mM NaCl, 0.5 mM EDTA, 1 mM DTT); anti-Flag affinity gel, HA antibody or Myc antibody, overnight at 4 °C; immunoblot
[5] = target: endogenous PA28γ (human (endogenous in epithelial cells; HOK and HaCat are the epithelial lines of the paper)) (UniProt P61289); experiment: co-IP; endogenous proteins; lysates incubated with 4 μg of anti-PA28γ, anti-BRAF or anti-MEK1 antibody overnight at 4 °C, then protein A + G agarose for 2 h; immunoblot
[6] = target: Flag-PA28γ stably overexpressed in epithelial cells (OE-PA28γ lentivirus) (human) (UniProt P61289); experiment: co-IP; stable PA28γ-overexpressing epithelial cell lines, with or without knock-down of BRAF (mix of three siRNAs); PA28γ immunoprecipitates blotted for MEK1

By UniProt entry, the sequences of proteins in these tests, tags left out.
UniProt P61289: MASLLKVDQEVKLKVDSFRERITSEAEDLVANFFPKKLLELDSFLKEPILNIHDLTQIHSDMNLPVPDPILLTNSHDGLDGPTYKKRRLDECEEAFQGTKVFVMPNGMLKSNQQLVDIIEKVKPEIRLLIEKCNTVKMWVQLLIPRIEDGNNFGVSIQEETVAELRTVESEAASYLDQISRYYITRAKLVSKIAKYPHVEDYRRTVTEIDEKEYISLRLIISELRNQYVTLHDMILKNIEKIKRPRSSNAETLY

- binding [1]: binds
- binding [2]: binds
Substance: HA-tagged MEK1 (from UniProt Q02750 1-393)

- binding (HA-tagged MEK1 [3]): binds
- binding (HA-tagged MEK1 [4]): binds
Substance: Flag-tagged PA28γ (proteasomal activator 28 gamma) (from UniProt P61289 1-254)

- binding [5]: binds
- binding [6]: binds
Substance: endogenous MEK1 (from UniProt Q02750 1-393)

— article PMC9374740
